Test results taken from PMC11781183.
Results are given in words; binding and its absence hold for the method and conditions named. In cells and extracts the contact can be indirect. Some entries that bind do so weakly or less than the wild type.

Molecular target: NF-κB/p65 subunit, endogenous (human (endogenous in HepG2, SK-hep1)), Q04206
Assay: co-IP; Pierce Co-IP Kit; extracts of HCC cells (HepG2, Huh7, SK-hep1; parent cells or cells with lentiviral DDX17 overexpression) incubated overnight with anti-DDX17, anti-β-catenin or anti-p65, isotype IgG as negative control; Western blotting; some cells stimulated with rCXCL8 (50 ng/mL, 24 h), TNFα (15 ng/mL, 24 h) or IL-1β (10 ng/mL, 24 h)
Details: remark: other sources report otherwise

binding: binds
B1: β-catenin, endogenous, P35222 1-781 (protein)
chain: MATQADLMELDMAMEPDRKAAVSHWQQQSYLDSGIHSGATTTAPSLSGKGNPEEEDVDTSQVLYEWEQGFSQSFTQEQVADIDGQYAMTRAQRVRAAMFPETLDEGMQIPSTQFDAAHPTNVQRLAEPSQMLKHAVVNLINYQDDAELATRAIPELTKLLNDEDQVVVNKAAVMVHQLSKKEASRHAIMRSPQMVSAIVRTMQNTNDVETARCTAGTLHNLSHHREGLLAIFKSGGIPALVKMLGSPVDSVLFYAITTLHNLLLHQEGAKMAVRLAGGLQKMVALLNKTNVKFLAITTDCLQILAYGNQESKLIILASGGPQALVNIMRTYTYEKLLWTTSRVLKVLSVCSSNKPAIVEAGGMQALGLHLTDPSQRLVQNCLWTLRNLSDAATKQEGMEGLLGTLVQLLGSDDINVVTCAAGILSNLTCNNYKNKMMVCQVGGIEALVRTVLRAGDREDITEPAICALRHLTSRHQEAEMAQNAVRLHYGLPVVVKLLHPPSHWPLIKATVGLIRNLALCPANHAPLREQGAIPRLVQLLVRAHQDTQRRTSMGGTQQQFVEGVRMEEIVEGCTGALHILARDVHNRIVIRGLNTIPLFVQLLYSPIENIQRVAAGVLCELAQDKEAAEAIEAEGATAPLTELLHSRNEGVATYAAAVLFRMSEDKPQDYKKRLSVELTSSLFRTEPMAWNETADLGLDIGAQGEPLGYRQDDPSYRSFHSGGYGQDALGMDPMMEHEMGGHHPGADYPVDGLPDLGHAQDLMDGLPPGDSNQLAWFDTDL
